Data as given in PubChem BioAssay AID743454 (Peter MacCallum Cancer Centre, 2014).
Aim: 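Search for knock-downs that restore vorinostat killing in resistant colon cancer cells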 (primary screen). Cells: human HCT116-VR colon cancer cells, selected for vorinostat resistance. Reagents: siRNA pool against human genes, 40 nM siRNA pool. Timing: vorinostat for 24 h, read-out about 72 h after transfection. Treatment: vorinostat at 2.5 µM final. Detection: 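Two measures, CellTiter-Fluor viability and luminescent caspase 3/7 activity, each as fold change against same-plate mock wells, mean of duplicates, then screen-wide robust z-score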. Reading the numbers: viability robust z-score: higher = more viable cells than screen typical; caspase robust z-score: higher = more caspase 3/7 activity than screen typical. Rule for the call: 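Hits are knock-downs in viability class RV1/RV2 or caspase class CA1/CA2, excluding ones that killed cells in the no-drug cell-count arm; hits then retested with single siRNAs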.
The deposit covers about 18,000 reagents; shown is an unselected part. 450 of all reagents (2.5%) were called active. 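Single biological run; no consistent viability z cut-off exists, so the class columns, not z-scores, define the calls.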

target gene	viability hit class	caspase hit class	viability robust z-score	caspase robust z-score	activity call
FGFR2 (GeneID 2263)	no change	no change	0.02	2.38	inactive
LTAP1 (GeneID 25912)	no change	no change	-0.03	0.02	inactive
KRTAP1-5 (GeneID 83895)	no change	no change	-2.33	1.73	inactive
EPB42 (GeneID 2038)	no change	no change	-0.2	-0.7	inactive
SHLD2 (GeneID 54537)	no change	no change	0.27	-0.52	inactive
KIF7 (GeneID 374654)	no change	no change	0.3	0.08	inactive
ABHD17C (GeneID 58489)	no change	no change	-0.02	-0.24	inactive
DYSF (GeneID 8291)	no change	no change	3.86	1.36	inactive
EVI5 (GeneID 7813)	no change	no change	2.67	1.28	inactive
ATP5PO (GeneID 539)	no change	no change	0.44	-0.22	inactive
HSPG2 (GeneID 3339)	no change	no change	0.57	-0.75	inactive
MYL3 (GeneID 4634)	no change	no change	-1.09	-0.17	inactive
CARD9 (GeneID 64170)	no change	no change	1.04	2.96	inactive
LBX2 (GeneID 85474)	no change	no change	-1.26	0.75	inactive

Reformatted: entries from further up
target gene,viability hit class,caspase hit class,viability robust z-score,caspase robust z-score,activity call
SHLD2 (GeneID 54537),no change,no change,0.27,-0.52,inactive
KIF7 (GeneID 374654),no change,no change,0.3,0.08,inactive
ABHD17C (GeneID 58489),no change,no change,-0.02,-0.24,inactive
DYSF (GeneID 8291),no change,no change,3.86,1.36,inactive

Additional reagents:
target gene	viability hit class	caspase hit class	viability robust z-score	caspase robust z-score	activity call
ZNF69 (GeneID 7620)	no change	no change	-0.78	-0.42	inactive
GTF2IRD2 (GeneID 84163)	no change	no change	-0.06	0.31	inactive
CPLANE2 (GeneID 79363)	no change	no change	-0.5	1.58	inactive
HMX2 (GeneID 3167)	no change	no change	1.57	-0.49	inactive
CD274 (GeneID 29126)	no change	no change	1.16	0.41	inactive
XKR9 (GeneID 389668)	no change	no change	-0.13	-0.76	inactive
ARR3 (GeneID 407)	no change	no change	1.17	-0.13	inactive
ABHD18 (GeneID 80167)	no change	no change	0.3	0.83	inactive
CHST13 (GeneID 166012)	no change	no change	-0.39	0.6	inactive
NACC1 (GeneID 112939)	no change	no change	-1.4	0.92	inactive
TPCN2 (GeneID 219931)	no change	no change	-2.1	0.47	inactive
CDC37P1 (GeneID 390688)	no change	no change	0.76	0.32	inactive
SPATA12 (GeneID 353324)	no change	no change	1.11	0.3	inactive
REC114 (GeneID 283677)	no change	no change	1.17	2.34	inactive
BCL2L14 (GeneID 79370)	no change	no change	-1	3.34	inactive
HIF3A (GeneID 64344)	no change	no change	-0.12	1.59	inactive
RYR1 (GeneID 6261)	no change	no change	-0.62	0.22	inactive
MTRR (GeneID 4552)	no change	no change	0.46	-0.34	inactive
PPP1R3B (GeneID 79660)	no change	no change	0.07	-0.38	inactive
PARP10 (GeneID 84875)	no change	no change	0.62	-0.52	inactive
SPMIP10 (GeneID 389320)	no change	no change	0.52	-0.52	inactive
WDR53 (GeneID 348793)	no change	no change	-0.44	-1.22	inactive
CCDC112 (GeneID 153733)	no change	no change	1	3.11	inactive
HES2 (GeneID 54626)	no change	no change	1.25	0.29	inactive
BOLA1 (GeneID 51027)	no change	no change	-1.02	-0.14	inactive
